Measured data: PubChem BioAssay AID1159578 (Peter MacCallum Cancer Centre, 2015)
Purpose: 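Genome-wide hunt for genes controlling movement of lymphatic endothelial cells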 (primary screen). Cells: human lymphatic endothelial cells. Knock-down reagent: siRNA pool against human genes, 40 nM. Time to read-out: 48 h after transfection. Read-out: 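High-content imaging of dye-stained cells in a scratch assay measures filled wound area and nuclei per well; duplicate means given as ratio to mock and robust z-score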. Direction: migration robust z-score: higher = faster migration into the scratch; migration relative to mock: higher = more scratch area covered than mock; nuclei per well: higher = more cells in the well. Active means: 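Migration changed when robust z exceeds 2 or falls below -2 and mean nuclei number is at least 3300; otherwise not called changed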. Meaning of the calls: active = migration changed; inactive = no migration change, or too few cells.
The whole screen tested about 18,000 reagents; below is a random part of them. About 1,030 of all reagents (5.7%) count as active. 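Inactive calls also include pools with fewer than 3300 nuclei, whose migration was not assessed.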 Raw values vary from plate to plate and are shown uncorrected.

gene symbol | migration robust z-score | migration class with cell-count check | migration relative to mock | nuclei per well, duplicate mean | Call
BTRC | 0.23 | migration z between -2 and 2; enough cells | 0.85 | 5235 | inactive
SLC35D4 | 0.32 | migration z between -2 and 2; enough cells | 0.97 | 4848 | inactive
TMEM231 (transmembrane protein 231) | -0.2 | migration z between -2 and 2; enough cells | 0.83 | 5754 | inactive
CNOT8 (CCR4-NOT transcription complex subunit 8) | 0.05 | migration z between -2 and 2; enough cells | 0.82 | 5256 | inactive
PDE6H (phosphodiesterase 6H) | 0.1 | migration z between -2 and 2; enough cells | 0.91 | 4838 | inactive
ZNF226 (zinc finger protein 226) | -0.2 | migration z between -2 and 2; enough cells | 0.84 | 5980 | inactive
SNTN (sentan, cilia apical structure protein) | -0.62 | migration z between -2 and 2; enough cells | 0.72 | 6326 | inactive
GIMAP8 (GTPase, IMAP family member 8) | -2.92 | migration z below -2; enough cells | 0.13 | 6524 | active
SLC24A2 | -1.46 | migration z between -2 and 2; enough cells | 0.52 | 3778 | inactive
CA13 (carbonic anhydrase 13) | 0.11 | migration z between -2 and 2; enough cells | 0.82 | 4840 | inactive
SLC44A2 | -0.36 | under 3300 nuclei; migration not judged | 0.74 | 3264 | inactive
PRKAA2 (protein kinase AMP-activated catalytic subunit alpha 2) | 0.13 | migration z between -2 and 2; enough cells | 0.83 | 5450 | inactive
CALHM6 (calcium homeostasis modulator family member 6) | -0.56 | migration z between -2 and 2; enough cells | 0.74 | 5785 | inactive
MRPL39 (mitochondrial ribosomal protein L39) | 0.05 | migration z between -2 and 2; enough cells | 0.9 | 6249 | inactive
NDRG2 (NDRG family member 2) | -1.35 | migration z between -2 and 2; enough cells | 0.55 | 6020 | inactive
NOVA1 (NOVA alternative splicing regulator 1) | -1.14 | migration z between -2 and 2; enough cells | 0.6 | 5778 | inactive
NDST4 (N-deacetylase and N-sulfotransferase 4) | 0.68 | migration z between -2 and 2; enough cells | 0.94 | 5840 | inactive
EPHA10 (EPH receptor A10) | -0.83 | migration z between -2 and 2; enough cells | 0.64 | 4687 | inactive
GRN (granulin precursor) | 1.42 | migration z between -2 and 2; enough cells | 1.26 | 6054 | inactive
TEX29 (testis expressed 29) | 0.39 | migration z between -2 and 2; enough cells | 0.98 | 5159 | inactive
TYSND1 (trypsin like peroxisomal matrix peptidase 1) | -0.7 | migration z between -2 and 2; enough cells | 0.67 | 5539 | inactive

Part of the list above, limited to “migration robust z-score”.
MRPL39 (mitochondrial ribosomal protein L39) = 0.05
NDRG2 (NDRG family member 2) = -1.35
NOVA1 (NOVA alternative splicing regulator 1) = -1.14
NDST4 (N-deacetylase and N-sulfotransferase 4) = 0.68
EPHA10 (EPH receptor A10) = -0.83

More results follow.
gene symbol | migration robust z-score | migration class with cell-count check | migration relative to mock | nuclei per well, duplicate mean | Call
RAET1G (retinoic acid early transcript 1G) | 0.43 | migration z between -2 and 2; enough cells | 1 | 5792 | inactive
PCNX1 (pecanex 1) | -2.03 | migration z below -2; enough cells | 0.36 | 4412 | active
LCE2A (late cornified envelope 2A) | -3.77 | under 3300 nuclei; migration not judged | -0.08 | 1328 | inactive
CNPY4 (canopy FGF signaling regulator 4) | 2.31 | migration z above 2; enough cells | 1.49 | 6264 | active
DNAJC14 (DnaJ heat shock protein family (Hsp40) member C14) | 1.4 | migration z between -2 and 2; enough cells | 1.08 | 5760 | inactive
SLC1A7 | -0.1 | migration z between -2 and 2; enough cells | 0.78 | 4903 | inactive
BTN2A1 (butyrophilin subfamily 2 member A1) | 0.34 | migration z between -2 and 2; enough cells | 0.98 | 5607 | inactive
DEFB135 (defensin beta 135) | 0.87 | migration z between -2 and 2; enough cells | 1.12 | 5320 | inactive
TBC1D8 (TBC1 domain family member 8) | -0.3 | migration z between -2 and 2; enough cells | 0.8 | 4988 | inactive
CORO1C (coronin 1C) | -1.02 | migration z between -2 and 2; enough cells | 0.62 | 4154 | inactive
MORN3 (MORN repeat containing 3) | 0.85 | migration z between -2 and 2; enough cells | 1.1 | 6490 | inactive
FKBP10 (FKBP prolyl isomerase 10) | 0.73 | migration z between -2 and 2; enough cells | 0.94 | 5106 | inactive
SULT1C3 (sulfotransferase family 1C member 3) | -1.51 | migration z between -2 and 2; enough cells | 0.52 | 6070 | inactive
IGSF10 (immunoglobulin superfamily member 10) | -0.84 | migration z between -2 and 2; enough cells | 0.67 | 4799 | inactive
ORC3 (origin recognition complex subunit 3) | -0.47 | migration z between -2 and 2; enough cells | 0.76 | 4844 | inactive
METTL16 (methyltransferase 16, RNA N6-adenosine) | 0.16 | migration z between -2 and 2; enough cells | 0.92 | 5152 | inactive
HUWE1 | 0.36 | migration z between -2 and 2; enough cells | 0.87 | 6948 | inactive
ARMCX5 (armadillo repeat containing X-linked 5) | -0.33 | migration z between -2 and 2; enough cells | 0.8 | 6692 | inactive
CYP19A1 (cytochrome P450 family 19 subfamily A member 1) | 1.25 | migration z between -2 and 2; enough cells | 1.04 | 5889 | inactive
F7 (coagulation factor VII) | -0.7 | migration z between -2 and 2; enough cells | 0.67 | 5426 | inactive
POMP (proteasome maturation protein) | -0.62 | under 3300 nuclei; migration not judged | 0.68 | 2666 | inactive
PCDHB12 (protocadherin beta 12) | -1.16 | migration z between -2 and 2; enough cells | 0.58 | 4712 | inactive
ALAD (aminolevulinate dehydratase) | -1.4 | migration z between -2 and 2; enough cells | 0.54 | 6218 | inactive
CATSPER2 (cation channel sperm associated 2) | 0.91 | migration z between -2 and 2; enough cells | 0.98 | 6058 | inactive
CLEC3A (C-type lectin domain family 3 member A) | -0.76 | migration z between -2 and 2; enough cells | 0.68 | 5907 | inactive
USP43 (ubiquitin specific peptidase 43) | 0.1 | migration z between -2 and 2; enough cells | 0.82 | 5796 | inactive
CXADR (CXADR cell adhesion molecule) | 1.03 | migration z between -2 and 2; enough cells | 1 | 6591 | inactive
C9orf50 (chromosome 9 open reading frame 50) | -1.38 | migration z between -2 and 2; enough cells | 0.52 | 6644 | inactive
OR9A4 (olfactory receptor family 9 subfamily A member 4) | 0.64 | migration z between -2 and 2; enough cells | 1.05 | 6697 | inactive
DHPS (deoxyhypusine synthase) | -1.14 | migration z between -2 and 2; enough cells | 0.58 | 5564 | inactive
CHRDL2 (chordin like 2) | 0.35 | migration z between -2 and 2; enough cells | 0.98 | 7831 | inactive
SOWAHA (sosondowah ankyrin repeat domain family member A) | -0.08 | migration z between -2 and 2; enough cells | 0.86 | 6694 | inactive
TBXA2R (thromboxane A2 receptor) | -1.02 | migration z between -2 and 2; enough cells | 0.61 | 5614 | inactive
ATP1A2 (ATPase Na+/K+ transporting subunit alpha 2) | -0.26 | migration z between -2 and 2; enough cells | 0.75 | 6180 | inactive
CACNA1I (calcium voltage-gated channel subunit alpha1 I) | -0.1 | migration z between -2 and 2; enough cells | 0.78 | 6180 | inactive
ADAM23 (ADAM metallopeptidase domain 23) | -0.02 | migration z between -2 and 2; enough cells | 0.8 | 6515 | inactive
